This note sets out measurements from publication PMC12802155.

The chains behind the UniProt entries cited, without tags or fusion partners.
UniProt P08727: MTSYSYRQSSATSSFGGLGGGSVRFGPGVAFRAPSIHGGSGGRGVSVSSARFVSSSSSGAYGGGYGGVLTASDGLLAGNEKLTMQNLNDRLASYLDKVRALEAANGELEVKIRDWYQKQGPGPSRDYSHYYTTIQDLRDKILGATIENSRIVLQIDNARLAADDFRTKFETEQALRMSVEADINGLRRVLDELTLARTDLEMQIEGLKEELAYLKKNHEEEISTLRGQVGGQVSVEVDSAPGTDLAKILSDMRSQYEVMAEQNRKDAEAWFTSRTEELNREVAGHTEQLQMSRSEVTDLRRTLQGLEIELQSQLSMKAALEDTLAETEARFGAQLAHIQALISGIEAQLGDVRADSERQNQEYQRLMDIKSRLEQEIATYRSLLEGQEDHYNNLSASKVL
UniProt P35579: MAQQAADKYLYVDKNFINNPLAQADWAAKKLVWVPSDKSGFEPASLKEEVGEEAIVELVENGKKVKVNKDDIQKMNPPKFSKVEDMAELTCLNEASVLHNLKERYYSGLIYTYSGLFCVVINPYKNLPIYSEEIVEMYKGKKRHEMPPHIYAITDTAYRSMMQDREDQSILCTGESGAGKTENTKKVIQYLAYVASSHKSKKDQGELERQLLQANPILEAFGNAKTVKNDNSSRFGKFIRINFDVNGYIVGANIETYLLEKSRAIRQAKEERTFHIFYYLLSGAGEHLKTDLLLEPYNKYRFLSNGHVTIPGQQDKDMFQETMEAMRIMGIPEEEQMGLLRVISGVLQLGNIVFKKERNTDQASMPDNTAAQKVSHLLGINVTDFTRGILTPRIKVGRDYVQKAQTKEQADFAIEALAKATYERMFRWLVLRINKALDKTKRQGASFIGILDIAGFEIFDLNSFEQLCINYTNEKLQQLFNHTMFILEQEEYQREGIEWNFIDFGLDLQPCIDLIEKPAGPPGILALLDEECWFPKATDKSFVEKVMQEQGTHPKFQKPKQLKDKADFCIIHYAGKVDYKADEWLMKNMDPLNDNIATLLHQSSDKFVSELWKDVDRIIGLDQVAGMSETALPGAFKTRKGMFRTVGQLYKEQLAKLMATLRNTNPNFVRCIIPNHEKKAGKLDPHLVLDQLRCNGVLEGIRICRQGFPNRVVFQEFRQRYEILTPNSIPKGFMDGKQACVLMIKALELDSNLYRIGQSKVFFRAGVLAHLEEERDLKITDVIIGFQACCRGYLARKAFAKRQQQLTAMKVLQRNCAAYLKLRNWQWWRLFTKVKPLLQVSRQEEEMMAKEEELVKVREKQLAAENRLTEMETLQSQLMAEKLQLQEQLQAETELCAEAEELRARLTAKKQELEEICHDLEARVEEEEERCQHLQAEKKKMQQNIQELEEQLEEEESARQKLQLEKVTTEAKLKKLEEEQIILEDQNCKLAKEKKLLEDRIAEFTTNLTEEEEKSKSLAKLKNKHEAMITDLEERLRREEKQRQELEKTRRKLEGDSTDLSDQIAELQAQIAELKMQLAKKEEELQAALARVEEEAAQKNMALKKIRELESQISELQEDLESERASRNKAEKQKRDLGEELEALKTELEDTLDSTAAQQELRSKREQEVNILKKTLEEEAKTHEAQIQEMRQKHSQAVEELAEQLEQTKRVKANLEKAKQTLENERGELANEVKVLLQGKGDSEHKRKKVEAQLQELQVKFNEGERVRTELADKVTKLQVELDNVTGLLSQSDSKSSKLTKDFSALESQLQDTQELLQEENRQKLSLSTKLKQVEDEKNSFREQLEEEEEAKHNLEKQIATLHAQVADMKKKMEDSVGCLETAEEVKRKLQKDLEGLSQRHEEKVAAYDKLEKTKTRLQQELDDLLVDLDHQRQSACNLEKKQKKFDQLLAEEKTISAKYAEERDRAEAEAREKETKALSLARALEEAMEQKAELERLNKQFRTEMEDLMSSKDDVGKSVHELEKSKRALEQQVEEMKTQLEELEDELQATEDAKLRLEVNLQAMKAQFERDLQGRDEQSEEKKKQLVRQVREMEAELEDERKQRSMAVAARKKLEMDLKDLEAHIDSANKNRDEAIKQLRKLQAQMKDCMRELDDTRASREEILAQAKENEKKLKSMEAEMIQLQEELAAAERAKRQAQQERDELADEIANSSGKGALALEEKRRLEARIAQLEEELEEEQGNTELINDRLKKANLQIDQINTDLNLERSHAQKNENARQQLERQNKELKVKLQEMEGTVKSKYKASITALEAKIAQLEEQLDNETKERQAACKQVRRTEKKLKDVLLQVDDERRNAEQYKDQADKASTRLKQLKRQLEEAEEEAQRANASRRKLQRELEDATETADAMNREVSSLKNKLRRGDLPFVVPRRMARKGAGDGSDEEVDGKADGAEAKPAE

Results are given in words; binding and its absence hold for the method and conditions named. In cells and extracts the contact can be indirect. A yes stands for co-enrichment or nearness to the bait. Other partners may have been found.

The assay has as its target Flag-tagged KRT19 (keratin 19) (UniProt P08727). Nature of the assay: affinity purification with mass spectrometry; total extracts of A549 cells stably overexpressing Flag-KRT19 immunoprecipitated with Flag tag antibody or control IgG, SDS-PAGE, silver stain, bands of interest excised, nano-UPLC Q Exactive plus MS.

On to “myosin heavy chain 9 (MYH9), endogenous (from UniProt P35579 1-1960)”, for which the binding result is given as “binds”.
